These results are taken from ChEMBL document CHEMBL3792344, “Synthesis, molecular properties prediction and anticancer, antioxidant evaluation of new edaravone derivatives” (Bioorg Med Chem Lett, 2016).

Broadly, the IC50 is the concentration needed to halve the response being measured.

The subject of this assay is A549. Briefly: Cytotoxicity against human A549 cells assessed as inhibition of cell viability after 48 hrs by MTT assay. The format is functional, cell-based. The following applies: A549, 48 h. (Tetrazolium assays rely on reduction of a dye to a coloured formazan, in cell work by metabolically active cells.)

With `COc1cccc2c1C(=O)c1c(O)c3c(c(O)c1C2=O)C[C@@](O)(C(=O)CO)C[C@@H]3O[C@H]1C[C@H](N)[C@H](O)[C@H](C)O1` [DOXORUBICIN], the IC50 stood at 3.3 µM.
